The record followed here is patent publication US9063046B1, “Hand-held device with reagents and method for detection and diagnostics” (priority 2012, dated 2015).

“Also recorded” adds a separate entry of the source.

For one series, the system named is B. atrophaeus endospores. Also noted: species or system Bacillus atrophaeus.
The subject of the next series is B. atrophaeus spores. The series is described as follows: Effect of disinfectant on real-time PCR detection of spores. As to conditions: for effect on PCR of spores: at concentration of use: sodium hypochlorite 0.05% v/v, guanidium thiocyanate 3.5 M, peracetic acid 0.03%, cupric ascorbate 0.5%, 30 min 21° C.
A further series concerns PIXV. Further details: species or system Pixuna virus. As to conditions: relative to controls not exposed to germicidal agent.

Take `N#CS.N=C(N)N` [Guanidium thiocyanate, guanidium thiocyanate, reference compound]: the “effect on ELISA of spores” value with B. atrophaeus endospores is given as “does not hinder”. The “effect on PCR of spores” value in the series with B. atrophaeus spores is on record as “does not hinder”.
Consider `O=CCCCC=O` [glutaraldehyde, reference compound], for which the “effect on ELISA of spores” value with B. atrophaeus endospores is recorded as “impair the performance”. For the same molecule, the “effect on PCR of spores” value in the series with B. atrophaeus spores is given as “impair the performance”.
In the case of `OO` [hydrogen peroxide, reference compound], the “effect on ELISA of spores” value with B. atrophaeus endospores is on record as “impair the performance”. In the series on B. atrophaeus spores, the “effect on PCR of spores” value is reported as “impair the performance”.
Consider `CC(=O)OO` [peracetic acid], for which the “increase in number of PCR cycles to detect PIXV relative to controls” value with PIXV is “about 4 cycles”. In addition, in the series with B. atrophaeus endospores, the “effect on ELISA of spores” value was “slightly; also recorded: only affected by PAA at a concentration ten times higher” and the “limit of detection of ELISA tests to determine spores” value is “marginally reduced”. The “effect on PCR of spores” value in the series on B. atrophaeus spores was “slightly”. Moreover, the “effect on PCR of spores” value with B. atrophaeus spores (listed as PAA) is “only marginally affected”.
Take `OCl` [sodium hypochlorite, reference compound]: in the series on B. atrophaeus spores, the “effect on PCR of spores” value is listed as “completely inhibits”.
With cupric ascorbate, in the series on B. atrophaeus endospores, the “effect on ELISA of spores” value is on record as “slightly; also recorded: no impact” and the “limit of detection of ELISA tests to determine spores” value is recorded as “marginally reduced”. For the same molecule, the “effect on PCR of spores” value in the series with B. atrophaeus spores is given as “slightly; also recorded: neglectable”. Besides, the “PCR of spores at five-fold higher concentration” value in the series with B. atrophaeus spores (cupric ascorbate five-fold higher than 0.5% in Cu++) is “does not impair”.
